Data taken from PubChem BioAssay AID540276 (National Center for Advancing Translational Sciences (NCATS), 2011).
The campaign covered roughly 300,000 compounds. About 5,400 (1.8%) were called active. The inconclusive results got no clear call from the source; some entries with a clear call stand among them for comparison. Calls follow the shape of the full dose curve; tested in HEK293 cells. Where the call is inconclusive, the potency comes from a doubtful curve fit.

assay: qHTS for inhibitors of binding or entry into cells for Marburg Virus; details: Marburg virus pseudotyped entry inhibition, cell reporter; series mostly up to 37.8 µM
Potency is read from the fitted curve at half-maximal effect.

Row | Compound | Potency
1 | O=C1CN(C(=O)COc2ccc(Cl)cc2Cl)C(c2ccccc2)c2cc(F)ccc2N1 (stereo not given) | inconclusive: 35.5 µM [inhibitor, single point]
2 | CN(C)S(=O)(=O)c1ccc(C(=O)NCC(C)(C)CN=C2NS(=O)(=O)c3ccccc32)cc1 | inconclusive: 2.51 µM [activator, single point]
3 | CCCC[C@H](CCC(=O)Nc1ccc(C(=O)OC)cc1)C(=O)O | inactive
4 | COC(=O)c1ccc(Oc2cc(C)nc(SC)n2)cc1 | inconclusive: 5.17 µM [inhibitor, partial curve, poor fit]
5 | COc1cc(C(=O)NNC(=S)NC(=O)c2ccc3c(c2)OCO3)cc(OC)c1OC | inconclusive: 1.26 µM [inhibitor, partial curve, poor fit]
6 | O=C(Nc1nnc(-c2ccco2)s1)C1CCN(S(=O)(=O)c2ccc(Cl)cc2)CC1 | inactive
7 | CC(C)OC(=O)C(C)Oc1ccc(C(=O)NCCc2ccccc2)cc1 (stereo not given) | inconclusive: 3.26 µM [activator, partial curve, poor fit]
8 | c1ccc(CCn2nnnc2C(c2cccnc2)N2CCN(c3ccccc3)CC2)cc1 (stereo not given) | inconclusive: 29.1 µM [inhibitor, single point]
9 | CCCOc1ccc(N2C(=O)CC(N(CCc3ccc(OC)cc3)C(=O)c3ccccc3)C2=O)cc1 (stereo not given) | inactive
10 | O=C(c1cccs1)N(Cc1nc2sc3c(c2c(=O)[nH]1)CCCC3)C1CCCC1 | inconclusive: 3.55 µM [inhibitor, single point]
11 | CCOC(=O)c1ccc(NC(=O)CCc2nnc3ccc(N4CCN(C)CC4)nn23)cc1 | inconclusive: 3.55 µM [activator, single point]
12 | Cc1ccc(N(C)S(=O)(=O)c2cccc(C(=O)Oc3ccc4c(C)cc(=O)oc4c3)c2)cc1 | inactive
13 | COCCOc1ccc(C(F)(F)F)cc1NC(=O)COC(=O)c1ccc(N2CCCC2=O)cc1 | inactive
14 | COc1ccc(OC[C@H]2CN3[C@@H](CC[C@@H](C)[C@@H]3c3ccc(Br)cc3)C(=O)O2)cc1 | inactive
15 | CCCn1c(NC(=O)c2cccc(S(=O)(=O)N3CCCC3)c2)nc2ccccc21 | active: 6.51 µM
16 | CCN(C(=S)NC(=O)C1CCCC1)C1CCCCC1 | inconclusive: 5.01 µM [activator, single point]
17 | NNC(=O)COc1ccc2oc3c(c2c1)CCCC3 | inactive
18 | CCOC(=O)c1cn2nc(N3CCCC3)ccc2n1 | active: 3.55 µM
19 | Cc1cc(Br)ccc1OCCN1CC(C)OC(C)C1 (stereo not given) | inconclusive: 12.6 µM [inhibitor, single point]
20 | O=C(Nc1ccc2c(c1)OCCO2)c1ccc(Br)cc1 | active: 3.98 µM
21 | CSc1ccc(-c2nc3cccc(C)n3c2Nc2ccc(Cl)cc2)cc1 | inconclusive: 14.1 µM [inhibitor, partial curve, poor fit]
22 | Cc1ccc(-n2ncc3c(NCc4ccccn4)ncnc32)c(C)c1 | inconclusive: 14.1 µM [inhibitor, single point]
23 | CC(=O)c1ccc(OCCCC(=O)Nc2cccc(S(=O)(=O)N3CCCCCC3)c2)cc1 | inconclusive: 10 µM [inhibitor, partial curve, poor fit]

In another format: results already given.
Row	Compound	Potency
4	COC(=O)c1ccc(Oc2cc(C)nc(SC)n2)cc1	inconclusive: 5.17 µM [inhibitor, partial curve, poor fit]
5	COc1cc(C(=O)NNC(=S)NC(=O)c2ccc3c(c2)OCO3)cc(OC)c1OC	inconclusive: 1.26 µM [inhibitor, partial curve, poor fit]

The list goes on:

Row | Compound | Potency
24 | COc1ccc(CCNc2c(N)n(Cc3ccccc3)c(=O)[nH]c2=O)cc1OC | inactive
25 | O=C(c1ccccc1)c1cc(F)c(N2CCOCC2)cc1Cl | inconclusive: 3.55 µM [inhibitor, single point]
26 | COCCNC(=O)C(=O)Nc1ccc(Cl)cc1C | inactive
27 | Cc1ccc(NC(=O)CCn2cnc3ccccc3c2=O)cc1 | inactive
28 | COc1cccc(CN2CC(C(=O)N3CCN(C(C)C)CC3)CCC2=O)c1 (stereo not given) | inactive
29 | CCc1c(C)nc2ncnn2c1N1CCN(S(=O)(=O)c2ccc(OC)cc2)CC1 | inconclusive: 1.26 µM [inhibitor, full curve, poor fit]
30 | Cc1ccc(N(C(=O)c2snc(C(N)=O)c2N)C(C(=O)NC2CCCC2)c2ccc(C)o2)cc1 (stereo not given) | inconclusive: 10 µM [inhibitor, partial curve, poor fit]
31 | CCCN(CC(=O)Nc1ccccc1C)C(=O)c1ccc(C2SCCS2)cc1 | inactive
32 | O=C(Nc1nccs1)c1ccc(Cl)cc1[N+](=O)[O-] | inactive
33 | Cc1ccc(C(=O)Oc2ccc(-c3nccc(-c4ccccn4)n3)cc2)cc1 | inconclusive: 3.98 µM [activator, partial curve, poor fit]
34 | CC(C)(C)C1CCc2nc(NC(=O)Cc3ccccc3)sc2C1 (stereo not given) | inconclusive: 4.47 µM [activator, partial curve, poor fit]
35 | CCOC(=O)NC(=O)/C(C#N)=N\Nc1ccc(Cl)cc1 | inactive
36 | CCOC(=O)c1c(NC(=O)c2cccnc2Cl)sc(C(=O)N(C)C)c1C | inconclusive: 35.5 µM [inhibitor, single point]
37 | CCOC(=O)c1c(NC(C)=O)sc(/C(C)=N/Nc2ccc(C(=O)O)cc2)c1C | inconclusive: 5.62 µM [activator, single point]
38 | CCn1c(=O)cc(OCC(=O)N(C)c2cc(Cl)ccc2C)c2ccccc21 | inactive
39 | Cc1ccc(C(=O)NNC(=O)Cc2cccs2)cc1 | inactive
40 | COc1cccc(NC(=O)Nc2nnc(Cc3ccc(F)cc3)s2)c1 | inconclusive: 0.708 µM [activator, single point]
41 | CCCCCCCCCCCC(=O)NC(Cc1ccc(OC)c([N+](=O)[O-])c1)C(=O)O (stereo not given) | inactive
42 | Clc1ccc(SCc2cc(-c3ccccc3)on2)cc1 | inconclusive: 3.55 µM [activator, single point]
43 | CCOC(=O)CC(NC(=O)C1c2ccccc2Oc2ccccc21)c1ccccc1Cl (stereo not given) | inconclusive: 3.66 µM [inhibitor, single point]
44 | COc1ccc2nc(SCc3nc(N)nc(Nc4ccccc4)n3)[nH]c2c1 | inconclusive: 14.1 µM [inhibitor, partial curve, poor fit]
45 | Oc1ccc(NCc2ccccc2OCc2ccc(Cl)cc2)cc1 | inconclusive: 1.26 µM [activator, partial curve, poor fit]
